Values quoted from earlier work, collected in patent US9662388B2, “Methods and systems for treating cell proliferation disorders using plasmonics enhanced photospectral therapy (PEPST) and exciton-plasmon enhanced phototherapy (EPEP)” (Duke University, priority 2008, dated 2017).
At least one compound was matched to its structure with a doubt left.

Conditions: cited from earlier work

In the case of `Cc1ncc(CO)c(C(=O)O)c1O` [Pyridoxic acid], the “Emission Max.” value is listed as 425 nm and the “Excitation Max.” value is listed as 315 nm.
